## Assay results

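Genome-wide siRNA knockdown in TC32 Ewing sarcoma cells, comparing luciferase light from an NR0B1-promoter reporter with a CMV-promoter reporter 48 hours after transfection. Each siRNA was applied at 20 nM. A z-score of the log NR0B1-over-CMV signal, less the median of siRNAs with the same seed; more negative means a stronger specific loss of the NR0B1 reporter.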

The strongest results of the screen are mostly left out here. Sequences are the guide (antisense) strand, without overhang.

{"sequence": "AAUUGUUGAAUGUGACUCC", "target gene": "N4BP1", "seed-corrected z-score": "0.4468"}
{"sequence": "AUUGUAGUAGCAGCUAGUG", "target gene": "RNASE13", "seed-corrected z-score": "-1.656"}
{"sequence": "UCACGGUAUAGAAGUAAUC", "target gene": "GRAMD1C", "seed-corrected z-score": "-1.097"}
{"sequence": "UCUGUGGGUAGAUCUGAGG", "target gene": "CSF2RB", "seed-corrected z-score": "0.1358"}
{"sequence": "UCCAGUUUGUCUUUAGUCU", "target gene": "WTAP", "seed-corrected z-score": "-0.8246"}
{"sequence": "AACCAUGUAACAAUAAGGC", "target gene": "SLC19A2", "seed-corrected z-score": "1.178"}
{"sequence": "UAAUGCAAUAGGUAGUGUC", "target gene": "LACTB2", "seed-corrected z-score": "0.8718"}
{"sequence": "AUGGUGACCAGGUAUGUGG", "target gene": "OR1I1", "seed-corrected z-score": "-0.4886"}
{"sequence": "UCGAAAAUCAACCUUGUUC", "target gene": "ABCC11", "seed-corrected z-score": "0.2391"}
{"sequence": "UAGGUUUUGACGCAGAAGG", "target gene": "PHLDB3", "seed-corrected z-score": "0.05684"}
{"sequence": "UAAAGCUUCAUAUUAUCGC", "target gene": "UNKL", "seed-corrected z-score": "0.2157"}
{"sequence": "AUUUAAUCACCAAAUAACU", "target gene": "UBE2NL", "seed-corrected z-score": "-1.333"}
{"sequence": "UGGAAAUCUUCGAUGGUCU", "target gene": "KRT36", "seed-corrected z-score": "0.3629"}
{"sequence": "UUAGAGUUUCCUGAUGAUG", "target gene": "CASP2", "seed-corrected z-score": "1.446"}
{"sequence": "UUUGGAGACAGGAUCGCCU", "target gene": "RPUSD1", "seed-corrected z-score": "0.1261"}
{"sequence": "AUCGUAAUAAUGCUUCUUG", "target gene": "PPIL2", "seed-corrected z-score": "0.5315"}
{"sequence": "UACACGAUCACGCCGAUGA", "target gene": "CACNG8", "seed-corrected z-score": "0.6862"}
{"sequence": "UUACAAUCGAUCUCCGCUG", "target gene": "PACS2", "seed-corrected z-score": "0.1221"}
{"sequence": "UUGCGAUUUCUUAUUGACG", "target gene": "ZNF268", "seed-corrected z-score": "0.4298"}
{"sequence": "AUCUGAACAAAAGCCGUGC", "target gene": "TERT", "seed-corrected z-score": "-0.06997"}
{"sequence": "UAACGUAAGUCUCCAAUCC", "target gene": "ADIPOQ", "seed-corrected z-score": "0.4652"}
{"sequence": "UUCAUUUUUCCCGCAAUUG", "target gene": "DEFB106A", "seed-corrected z-score": "0.923"}
{"sequence": "AUGAUGACCAUAUCAUUGC", "target gene": "SLC38A8", "seed-corrected z-score": "-0.9422"}
{"sequence": "UACUCGGUAAGUGUGCCCU", "target gene": "NCF1", "seed-corrected z-score": "0.5176"}
{"sequence": "AGAUUCCGCAGCGUAAUGG", "target gene": "TREM2", "seed-corrected z-score": "0.3565"}
{"sequence": "AAGGAGACUACGGACGAGG", "target gene": "ADRB1", "seed-corrected z-score": "-0.4236"}
{"sequence": "UGCAUAAUCCCUAUUGCGC", "target gene": "SLC6A16", "seed-corrected z-score": "0.04585"}
{"sequence": "UUUCGUUUCAUCUCGUGCC", "target gene": "STX3", "seed-corrected z-score": "-0.02876"}
{"sequence": "UCUGAUCUCACACUCAUUC", "target gene": "CC2D1B", "seed-corrected z-score": "0.3739"}
{"sequence": "AUCGAAGUCAAUGAGGUCC", "target gene": "DSP", "seed-corrected z-score": "1.185"}
{"sequence": "UACCCGACAGAGAUCCUUG", "target gene": "DNAJC13", "seed-corrected z-score": "-0.2847"}

2 of the entries, repeated:

Sequence	target gene	seed-corrected z-score
UAGGUUUUGACGCAGAAGG	PHLDB3	0.05684
UCACGGUAUAGAAGUAAUC	GRAMD1C	-1.097

The results are deposited in PubChem (AID1159506; NCATS, 2015).